Values of other authors in patent publication US20250255771A1, “OPHTHALMIC DEVICES FOR MANAGEMENT OF WATER VAPOR TRANSMISSIBILITY, DELIVERY OF PHARMACEUTICAL AGENTS, AND NON-SURGICAL CORNEAL RESHAPING” (OCULAR SURFACE INNOVATIONS INC., priority 2024, published 2025).
For at least one compound, name, drawing or mass did not settle the structure.

Conditions: cited from earlier work

SMILES: O=C([O-])c1ccccc1-c1c2ccc(=O)cc-2oc2cc([O-])ccc12.[Na+].[Na+] [sodium fluorescein]
- polar surface area: 90 angstroms squared
